# Data reported in PubChem BioAssay AID1259344 (Tox21, 2017).
# In all, about 3,700 compounds went through this assay and about 35 (0.9%) were called active. These results got no clear call from the source, so the numbers are uncertain. The call rests on the fitted dose curve; in most records, active means well fitted activation curve with a large enough effect; inconclusive means small, poorly fitted or top-dose-only effect; inactive means flat fitted curve, though single readings scatter.
# Experiment: qHTS assay to identify small molecule phospholipidosis (PLD) inducers
# Conditions: HepG2 phospholipidosis, LipidTOX Red imaging, 24 h
# Source text: National Center for Advancing Translational Sciences [NCATS]
# Drug-induced Phospholipidosis (PLD) caused by cationic amphiphilic drugs is characterized by the appearance of unicentric or multicentric-lamellar bodies when viewed under electron microscope. Electron microscopy is the gold standard method for PLD detection, however, this method is time-consuming and labor intensive, making it unsuitable for evaluating a large set of compounds. A cell-based phospholipidosis assay has been developed using the LipidTox reagent in HepG2 cells and miniaturized into a 1536-well plate format. Drug induced phospholipid accumulation is stained with the LipidTox dyes in red color which then is determined using an automated high content screening system. […]
# For fixations, 4 uL of 8% paraformaldehyde fixative solution containing 10 ug/mL Hoechst 33342 in Dulbecco's phosphate-buffered saline (DPBS) is added using a Kalypsys washer/dispenser (Kalypsys, San Diego, CA, USA). […] The fluorescence intensities (595 nm excitation, 615 nm emission for LipidTOX; 352 nm excitation, 461 nm emission for Hoechst 33342) are measured using an ImageXpress Micro Widefield High Content Screening System (Molecular Devices, Sunnyvale, CA, USA) with a 20x Plan Fluor objective. Images are acquired for one site in each well and analyzed with the MetaXpress software (Molecular Devices) using the Transfluor module. […]
# Potency means the concentration at half of the fitted maximal effect.
row,SMILES,Potency
1,CCC(=O)N(c1ccccc1)C1(COC)CCN(CCc2cccs2)CC1,inconclusive: 0.0355 µM
2,CCOP(=O)(CC)Oc1ccc([N+](=O)[O-])cc1 (configuration not stated),inconclusive: 28.2 µM
